PubChem BioAssay AID720505 – Drosophila RNAi Screening Center – 2013

Aim: 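Genes needed for store-operated calcium entry in fly cells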 (primary screen)
System: Drosophila S2R+ cells
Reagent: long dsRNA against Drosophila genes
Challenge: thapsigargin (2 µM) in calcium-free buffer to empty internal stores, then 2 mM calcium added back
Read-out: 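Fluo-4 signal in 384-well plates read on a FLIPR after thapsigargin (2 µM, calcium-free) store depletion and 2 mM calcium add-back; unnormalised mean endpoint per well; screen run twice, selected wells retested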
Direction: calcium signal and retest calcium signal: higher = more calcium entry after store depletion
Rule for the call: 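Knock-downs counted as hits when calcium entry dropped relative to STIM1 positive and Rho1 negative controls present on each plate; roughly 1500 genes called, with reductions of differing size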
Meaning of the calls: active = called as lowering calcium entry; inactive = not called
The deposit covers about 20,000 reagents; below is a random part of those that have a named target and a result. In the full data, about 2,100 (10%) got an active call. 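Raw plate signals without normalisation; calls rest on control-based scores that were not deposited; replicate 2 separates called from uncalled poorly.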 Entries without a mark were called inactive. A plus sign joins genes that one reagent is predicted to hit. No sequences are given here. The record does not give: the amount of reagent, the time to read-out.

Gene	DRSC id	calcium signal, replicate 1	calcium signal, replicate 2	retest calcium signal, replicate 1	retest calcium signal, replicate 2
r + CG13012	DRSC19531	85.4	98.2		
DnaJ-H (GeneID 34707)	DRSC03273	86.5	151		
CG6000 (GeneID 42851)	DRSC15938	216	196		
Cmtr1 (GeneID 31355)	DRSC18400	109	117		
CG5645 (GeneID 39382)	DRSC10532	65.4 (active)	68.6		
BomT2 (GeneID 50208)	DRSC06631	240	132		
mRpL37 (GeneID 41293)	DRSC16062	116	98.8		
CG5290 (GeneID 39998)	DRSC10501	136	110		
Atg10 + CG18853 + CG12822	DRSC20757	81.2	9169		
Sry-beta (GeneID 43570)	DRSC16868	101	131		
Reph (GeneID 47399)	DRSC00634	104	190		
Reph (GeneID 47399)	DRSC22031	154	280		
asRNA:CR43476 + CG42534	DRSC23246	93.7	145		
CG17681 (GeneID 35086)	DRSC02632	79.4 (active)	117		
fd96Ca (GeneID 43010)	DRSC16946	212	152		
CG15213 (GeneID 50316)	DRSC10213	86.2	86.4		
CG12964 (GeneID 36714)	DRSC06266	152	204	90.3	119
CG12964 (GeneID 36714)	DRSC23210	109	183		
Glt (GeneID 34193)	DRSC03333	85.7	70.6		
Hk (GeneID 31955)	DRSC18138	116	132		
Hk (GeneID 31955)	DRSC18674	63.2 (active)	119		
CG30349 (GeneID 35885)	DRSC06421	62.1 (active)	121		
CG30349 (GeneID 35885)	DRSC06839	64.8 (active)	105		
La (GeneID 35305)	DRSC03358	118	89.2		
CG12177 (GeneID 32326)	DRSC19437	111	82.4	7136	105
CG12177 (GeneID 32326)	DRSC21524	184	104		
hh (GeneID 42737)	DRSC16965	219	233		
CG17683 (GeneID 3355011)	DRSC21160	158	93.8		
ana1 (GeneID 42927)	DRSC16079	240	278		
ana1 (GeneID 42927)	DRSC21825	62.8	160		
eco (GeneID 38812)	DRSC11006	111	81.6		
Myo10A (GeneID 32028)	DRSC19758	71 (active)	92.6		
Myo10A (GeneID 32028)	DRSC19834	63.2 (active)	77.4		
Myo10A (GeneID 32028)	DRSC19837	139	86.5		
Myo10A (GeneID 32028)	DRSC23140	96.8	111		
CG4935 (GeneID 34955)	DRSC01924	97.3	85.9		
HP1D3csd (GeneID 32906)	DRSC19548	78.4 (active)	168		
CtsF (GeneID 40628)	DRSC12195	61.3 (active)	107		
CtsF (GeneID 40628)	DRSC12196	110	88.1		
croc (GeneID 40374)	DRSC11884	76.6	163		
PolZ1 (GeneID 47186)	DRSC06800	187	173		
CG31855 (GeneID 318983)	DRSC02968	105	97.6		
Hsp60D (GeneID 34763)	DRSC02543	120	158		
Spf30 (GeneID 7354399)	DRSC11976	99.1	187		
CG3702 (GeneID 33628)	DRSC00628	135	255		
CG11334 (GeneID 43713)	DRSC14302	82	107		
lig (GeneID 35771)	DRSC07246	171	200		
lig (GeneID 35771)	DRSC07247	116	138		
gammaCOP (GeneID 43717)	DRSC16955	61.4 (active)	76.7		
CG42810 (GeneID 34764)	DRSC02533	126	88.9		
CG13314 (GeneID 39030)	DRSC09985	156	114		
Cyp304a1 (GeneID 41586)	DRSC16623	118	95.3		
RpL37A (GeneID 44783)	DRSC02899	137	82.2		
CG12236 (GeneID 31523)	DRSC17830	141	88.3		
CG12236 (GeneID 31523)	DRSC17831	244	118		
JhI-26 (GeneID 36819)	DRSC06851	74.6 (active)	168		

7 entries from above, showing only “calcium signal, replicate 1”:
lig (GeneID 35771) [DRSC07247]: 116
gammaCOP (GeneID 43717) [DRSC16955]: 61.4 (active)
CG42810 (GeneID 34764) [DRSC02533]: 126
CG13314 (GeneID 39030) [DRSC09985]: 156
Cyp304a1 (GeneID 41586) [DRSC16623]: 118
RpL37A (GeneID 44783) [DRSC02899]: 137
CG12236 (GeneID 31523) [DRSC17830]: 141
